Three molecules from paper PMC12224964 can be followed below.

By UniProt entry, the sequences of proteins in these tests, tags left out. Residues count along the entry.
UniProt Q8IY31: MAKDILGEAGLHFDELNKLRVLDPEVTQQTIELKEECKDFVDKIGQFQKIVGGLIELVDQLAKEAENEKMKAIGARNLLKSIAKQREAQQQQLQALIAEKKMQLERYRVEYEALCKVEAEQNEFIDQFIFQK
UniProt P05161, residues 1-157: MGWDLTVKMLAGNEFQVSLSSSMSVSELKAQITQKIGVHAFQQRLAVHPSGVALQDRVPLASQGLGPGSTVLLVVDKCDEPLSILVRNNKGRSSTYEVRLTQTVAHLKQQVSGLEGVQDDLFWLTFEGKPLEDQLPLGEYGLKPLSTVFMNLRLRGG

The labels stand for the following.
B1: metastasis suppressor kangai-1 (KAI1), endogenous (protein, UniProt P27701 1-267)
chain: MGSACIKVTKYFLFLFNLIFFILGAVILGFGVWILADKSSFISVLQTSSSSLRMGAYVFIGVGAVTMLMGFLGCIGAVNEVRCLLGLYFAFLLLILIAQVTAGALFYFNMGKLKQEMGGIVTELIRDYNSSREDSLQDAWDYVQAQVKCCGWVSFYNWTDNAELMNRPEVTYPCSCEVKGEEDNSLSVRKGFCEAPGNRTQSGNHPEDWPVYQEGCMEKVQAWLQENLGIILGVGVGVAIIELLGMVLSICLCRHVHSEDYSKVPKY

These are yes or no findings as the source states them, for the method shown. In cells and extracts the contact can be indirect. Here binding means that the protein was enriched with, or labelled near, the bait; the list need not be complete.

This assay deals with T1, vacuolar protein sorting 41 homolog (VPS41), endogenous (human (endogenous in HaCaT)) (UniProt P49754).
T1 sequence: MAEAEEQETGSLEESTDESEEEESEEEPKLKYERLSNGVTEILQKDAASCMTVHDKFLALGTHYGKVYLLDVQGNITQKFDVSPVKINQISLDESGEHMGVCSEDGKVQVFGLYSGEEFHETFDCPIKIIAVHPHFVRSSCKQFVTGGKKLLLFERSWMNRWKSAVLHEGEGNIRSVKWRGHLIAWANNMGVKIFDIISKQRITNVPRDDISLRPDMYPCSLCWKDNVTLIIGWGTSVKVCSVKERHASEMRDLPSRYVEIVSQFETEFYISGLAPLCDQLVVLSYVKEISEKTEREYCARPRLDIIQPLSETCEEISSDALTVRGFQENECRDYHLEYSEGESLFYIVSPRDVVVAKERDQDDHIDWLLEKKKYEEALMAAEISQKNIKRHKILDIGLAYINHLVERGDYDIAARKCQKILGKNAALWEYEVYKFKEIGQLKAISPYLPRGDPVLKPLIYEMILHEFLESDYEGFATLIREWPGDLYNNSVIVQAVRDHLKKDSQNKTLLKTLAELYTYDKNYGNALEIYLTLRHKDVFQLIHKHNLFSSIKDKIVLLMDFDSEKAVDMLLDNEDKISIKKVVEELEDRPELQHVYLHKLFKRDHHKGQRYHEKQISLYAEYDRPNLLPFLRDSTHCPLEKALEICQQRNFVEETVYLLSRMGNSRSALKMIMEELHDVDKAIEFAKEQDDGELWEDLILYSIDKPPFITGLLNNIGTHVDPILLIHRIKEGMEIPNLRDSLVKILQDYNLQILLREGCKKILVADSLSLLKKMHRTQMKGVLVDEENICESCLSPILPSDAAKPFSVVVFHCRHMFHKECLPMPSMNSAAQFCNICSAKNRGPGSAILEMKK
Description: affinity purification with mass spectrometry; interacting proteins of endogenous VPS41 identified by mass spectrometry; hits intersected with the proteins differentially expressed on VPS41 overexpression in HaCaT cells after 10 Gy.
For IFT20 (from UniProt Q8IY31 1-132), the binding result is “binds”.

Consider ISG15 (from UniProt P05161 1-157), for which the binding result is “binds”.

As for B1, the binding entry was “binds”.
